Patent US20240158480A1 (ACADEMY OF MILITARY MEDICAL SCIENCE PLA, published 2024)
No constants are given. Whether binding was seen depends on the method and setting. Some results given as binding are weak or reduced against the parent protein; the word gives no strength.

The chains behind the UniProt entries cited, without tags or fusion partners. Residues count along the entry.
UniProt Q9IH62, residues 71-602: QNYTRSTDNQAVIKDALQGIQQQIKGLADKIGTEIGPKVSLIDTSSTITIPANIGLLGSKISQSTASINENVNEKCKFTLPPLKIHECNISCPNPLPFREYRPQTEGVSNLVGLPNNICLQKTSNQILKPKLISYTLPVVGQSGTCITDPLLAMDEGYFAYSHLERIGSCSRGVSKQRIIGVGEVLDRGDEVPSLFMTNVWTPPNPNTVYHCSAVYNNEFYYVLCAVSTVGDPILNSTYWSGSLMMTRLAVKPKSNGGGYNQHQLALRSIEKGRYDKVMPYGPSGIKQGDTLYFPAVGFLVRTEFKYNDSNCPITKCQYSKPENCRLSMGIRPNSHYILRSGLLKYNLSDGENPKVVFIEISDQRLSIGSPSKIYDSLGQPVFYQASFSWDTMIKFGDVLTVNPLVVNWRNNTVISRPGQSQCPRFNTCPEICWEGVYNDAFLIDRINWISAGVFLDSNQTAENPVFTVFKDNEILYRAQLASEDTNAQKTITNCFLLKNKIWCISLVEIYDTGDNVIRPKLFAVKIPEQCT

B1: 1D11 (antibody, V domains shown)
VH: EVQLVESGGGLVQPGGSLRLSCAASGFTFSSYDMSWVRQAPGKGLEWVSSISSVTSYISYADSVKGRFTISRDNAKNSLSLQMNSLKTEDTAVYYCTTENWNFDFWGQGVLVTVSS
VL: DVVMTQSPLSLATTPGQPASISCRSSQSLVHSNGNTYLSWYQQKPGQPPRLLIYEVSNRDSGVPDRFSGSGAGTDFTLKISRVEAEDVGVYYCGQGTHWPPFTFGPGTKLDIK
notes: also called antibody 1D11; monoclonal antibody 1D11; copies: 2 + 2
B2: 2B6 (antibody, V domains shown)
VH: QVQLVQSGAEVKKPGASVKLSCKASGYTFTSFYINWVRQAPGQVLEWMGWINPSNGDTGYAQKFQGRVTMSRDTSTSTAYMELSSLRSEDTAVYYCTRETVGSGTFDCWGQGVLVTVSS
VL: DIVMTQTPLSLSVTLGEPASISCRSSQSLVYSAGKTYLDWYLQKPGQSPQLLIYLVSKRASGVPDKFSGSGSGTDFTLKISRVEAEDVGVYYCMQALRSPLTFGGGTKVELK
notes: also called antibody 2B6; monoclonal antibody 2B6; copies: 2 + 2

Target: NiV-MY G (Nipah virus, Malaysia strain (NiV-MY)) (UniProt Q9IH62)
Assay: ELISA, G protein coated

Binder	binding
B1	binds
B2	binds
